PubChem BioAssay AID1259405 – NCATS | 2018
This is one part, drawn at random, of about 50,000 deposited reagents. About 4,000 of them (8%) count as active. 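Mouse siRNA library applied to hamster cells; one well for each siRNA.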 Reagents against one gene are numbered here.

Aim: 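Silenced genes that increase secreted GFP made by CHO cells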 (primary screen)
System: Chinese hamster CHO-K1 ovary cells with stable secreted eGFP expression
Reagent: single siRNA against mouse genes, 0.8 pmol siRNA per well (2 µl of 400 nM stock)
Duration: 3 days
Detection: 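Per-well intracellular GFP measured by laser scanning cytometry, plus viability from ATP luminescence, each relative to plate median of non-targeting control wells, in %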
Direction: GFP, % of control: higher = more GFP per well, higher productivity; viability (ATP), % of control: higher = more viable cells (more ATP)
Call rule: 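a knock-down is called active if GFP reaches 120% or more of non-targeting control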

Tor1b #1
- GFP, % of control: 137
- viability (ATP), % of control: 97.8
- outcome: active

Tor1b #2
- GFP, % of control: 110
- viability (ATP), % of control: 100
- outcome: inactive

Tor1b #3
- GFP, % of control: 123
- viability (ATP), % of control: 117
- outcome: active

Fgf10 #1
- GFP, % of control: 72.9
- viability (ATP), % of control: 66
- outcome: inactive

Fgf10 #2
- GFP, % of control: 74.2
- viability (ATP), % of control: 90.1
- outcome: inactive

Fgf10 #3
- GFP, % of control: 68.1
- viability (ATP), % of control: 64.5
- outcome: inactive

Polr2g #1
- GFP, % of control: 78.4
- viability (ATP), % of control: 80.7
- outcome: inactive

Polr2g #2
- GFP, % of control: 64.6
- viability (ATP), % of control: 23.8
- outcome: inactive

Polr2g #3
- GFP, % of control: 107
- viability (ATP), % of control: 35.2
- outcome: inactive

An excerpt from the list above, for reference:
Fgf10 #1
- GFP, % of control: 72.9
- viability (ATP), % of control: 66
- outcome: inactive

Fgf10 #2
- GFP, % of control: 74.2
- viability (ATP), % of control: 90.1
- outcome: inactive

Continued:
Cyp7a1 #1
- GFP, % of control: 83.1
- viability (ATP), % of control: 97.7
- outcome: inactive

Cyp7a1 #2
- GFP, % of control: 72.5
- viability (ATP), % of control: 84.6
- outcome: inactive

Cyp7a1 #3
- GFP, % of control: 79.4
- viability (ATP), % of control: 80.1
- outcome: inactive

Phyhd1 #1
- GFP, % of control: 78
- viability (ATP), % of control: 66.8
- outcome: inactive

Phyhd1 #2
- GFP, % of control: 56.8
- viability (ATP), % of control: 75.4
- outcome: inactive

Phyhd1 #3
- GFP, % of control: 58.4
- viability (ATP), % of control: 74.8
- outcome: inactive

Or52n2b #1
- GFP, % of control: 97.6
- viability (ATP), % of control: 79.1
- outcome: inactive

Or52n2b #2
- GFP, % of control: 95
- viability (ATP), % of control: 58.6
- outcome: inactive

Or52n2b #3
- GFP, % of control: 66.7
- viability (ATP), % of control: 93
- outcome: inactive
